Measurements from PubChem BioAssay AID1347426 (Functional Genomics Laboratory (NCATS/FGL), 2020).
The whole screen tested about 31,000 sequences, of which about 1,400 (4.5%) were called active.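 The calls were made as follows: active = median seed-adjusted z-score above 1 or below -1; inactive = the rest.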 This is one part of the list.

Test: Novel Modifiers of Survival Motor Neuron (SMN) Protein: Gene Identification via Genome-wide siRNA Screen;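 also: luminescence tracks full-length SMN protein made from the SMN2 reporter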
Details: HEK293T SMN2-luciferase reporter, siRNA knockdown, 72 h; actives lie on both sides
Method in brief: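 HEK293T cells stably carrying an SMN2 promoter/splicing cassette–luciferase reporter were reverse-transfected with 1 pmol siRNA per well (druggable-genome library, 3 siRNAs per gene) and grown 72 h at 37 °C. Luminescence, normalized to negative-control siRNA and log10-transformed, was scored as MAD.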

Sequence	median seed-adjusted z-score
CAAAAACAGUGGAUAAUUUTT against PPIB	inactive: 0.038
GCAGCAUUUUUGUGGACGATT against ADAMTS18	inactive: 0.824
GCAUUGUAGUUAUUAUUUUTT against OLIG2	inactive: 0.00944
GCAUCAAGUUUAUAAGACATT against TXNRD1	inactive: 0.485
AUAUGGGACAGAAACCAUATT against ZNF222	inactive: 0.13
GUCCCGGAAUUACAGAGUATT against LIAS	inactive: -0.31
CAGCUACCCUUCCAUCAUATT against BRCA1	inactive: -0.0302
CAAGCAUCUUUGUCAAAGATT against PTH2R	inactive: -0.492
GAAUCCCGUUGUUCGGAUATT against FAP	inactive: -0.258
GGCUAUUACUCAGUACAGATT against TLN1	inactive: -0.0619
GAUAUGAAUCAAUUCCGAATT against CROT	inactive: -0.612
GCAAUACUCUUAACCAUAATT against FOXA1	inactive: 0.279
AGAUAAAGCGAUCUAAACUTT against ASCC3	inactive: -0.192
GGAGGAUAGCAGCAGAAGATT against ATP5I	inactive: -0.871
GCAAUUCGAUUAGCAGCUATT against PCDHGC4	inactive: 0.301
GAAGGUCCUAGUUAUCCAATT against CYB5R4	inactive: 0
ACUGAGAUCUUGUUCCACUTT against NOL6	inactive: -0.751
GAUUUAAGCAGAGUUCAAATT against BCR	inactive: 0.143
GUAUCAUAGCAACGAUUUATT against SLC7A9	inactive: 0.194
GGAGAAUGCCGAAGAGGAATT against POLR2F	active: -3.52
GAAUCUGAACGAACGAUAUTT against ULK2	inactive: -0.0393
AACCAAGGGUGGUAAUGUUTT against ABCF1	inactive: -0.221

Sequence	median seed-adjusted z-score
GAUCCUCAGUAAACCUAUUTT against DDX46	active: -1.24
GCCCUAUACAUAUUGGGUUTT against CYP2E1	inactive: 0.81
GAAACAUAGUUCAACUGAATT against ELK1	inactive: -0.52
CUAUGAUGCUGCCCAAAGATT against SAA4	inactive: 0.104
GCAUCAUCGUGCUCUGCUATT against OPN1MW	inactive: -0.369
CCAUACUUGAAAACUAUUUTT against DOT1L	inactive: 0.164
GCCCAUCGUGCUUAAAGAATT against RASA3	inactive: 0.0056
GAACUUUGUUACUAUCGAATT against PCDH9	inactive: 0.165
GGACUUACGGCUGUACGAATT against FSD2	inactive: 0.359
GCAACCACGCCUCACCAAATT against TFDP3	inactive: -0.135
CUGUUUAAGCGAUGACAAATT against CFL2	inactive: -0.148
GGCGAAGGCAUCUCAGUUATT against PDCL	inactive: -0.802
UGAUCAGCCUCGACCGGUATT against HRH2	inactive: -0.257
GUCCAACACUGAUAAGAUUTT against LCORL	inactive: -0.0458
AGAGCUAUGCUUUAGGUCUTT against S100A2	inactive: -0.0951
CCCACACCUCUUUAAGUAUTT against DNTTIP1	inactive: -0.33
CAUGCGCAAAAUCACCAAATT against ARL8A	inactive: -0.0844
UGAAGAAUAUUUUCCAUGATT against SLC26A6	inactive: 0.316
GGACAUAGCUUGGUGAACUTT against HEL308	inactive: 0.229
AGAUCAACGCAGGCAUGUATT against GMPPB	inactive: 0.154
UCAUAAACUUGGAUAAGCATT against NRIP3	inactive: -0.699
CCUUAAUUUUCGCAGAUAATT against PANK4	inactive: 0.00068

Sequence	median seed-adjusted z-score
CGCUGAUCGUUAUACCCGUTT against RAMP3	inactive: 0
CAGCAGACGUAAAAAUUCATT against MSX2	inactive: -0.406
ACAUCAUUACGGACAAAAATT against CNGB1	inactive: -0.627
GACUAUCUUUUUAGGCAAATT against BRIP1	inactive: 0.312
GAGCCCAGCUGAAACGAGATT against NDUFB4	inactive: -0.697
AGUUCUUCGAGAACCGCAATT against WIZ	inactive: 0.282
CAGUGGAACCCAAGAAUAATT against SALL2	inactive: 0.504
ACACUGUUGCAAGGACUAATT against NCR2	inactive: -0.0526
CCGACAAGAUGUGAAGUCATT against ADD2	inactive: -0.176
GGACAGGAACCAGAACCCATT against ZFPM1	inactive: -0.925
CGUGAAGAGAUGUUACAAATT against POLB	inactive: 0.376
ACUGCUUUAUCCAAAUUCATT against CSF2RA	inactive: -0.227
GAAUCCUCCCAAUUGAUCATT against LSG1	active: 1.31
CUACAUUCUUAAUGCCGAUTT against EIF3L	inactive: 0.656
CUUAAUCACUUGCAUAAAATT against GALR1	inactive: -0.721
GGUCUGCACUCAUCACUAUTT against MGAT4A	inactive: 0.134
CUAGAUACGUGUUCAGGAATT against CNTN4	inactive: -0.407
CCCGGAAGUUUGUAGCUGATT against SLC25A44	inactive: -0.0685
GCUCUGCUAUAUCCUGGAUTT against FCER1G	inactive: 0.136
CCAGUACAUUUACCGAGUATT against ADH7	inactive: -0.388
GCUACGUCCUGCACCGUAATT against MASP2	inactive: -0.137
CCCUGCCUUUUUCAACUUUTT against CYP2F1	inactive: 0

Rewritten comma-delimited: part of the list above
Sequence,median seed-adjusted z-score
GAGCCCAGCUGAAACGAGATT against NDUFB4,inactive: -0.697
AGUUCUUCGAGAACCGCAATT against WIZ,inactive: 0.282

Next records

Sequence	median seed-adjusted z-score
GAGAGUUCACUAAAGGAAATT against ITPKB	inactive: -0.142
UACACAACCUUGGAAGAUUTT against DDX19B	inactive: -0.298
GCACAGGCAAUGUUCGCAATT against MEP1A	inactive: 0.209
AAGACGAACUUGAGCUGGATT against MAPK8IP1	inactive: 0.576
CCAUAAUAAUGAAUGACUATT against SEC11C	inactive: 0.508
GGAAAUCAUCUUUACGGAATT against DONSON	inactive: -0.882
CUACCUCUAUAUCACCAAATT against KDELR1	inactive: -0.0168
GCUAAUCCUUAACUAUCCATT against NF1	inactive: -0.36
GAAGUCAGAGCGUAAGAAATT against GNA15	inactive: 0.582
GUCACAUCUUUUUCAUACATT against CHST9	inactive: 0.252
UGACCACACUUCUCAGCUATT against IL9R	active: -1.33
GCAUCUACUUCAACCGUUUTT against GRK6	inactive: -0.862
GAGUGUACAAAGGAAGUUATT against SLCO1A2	inactive: -0.2
GGACUACCACCAAUUCUAATT against ATP5B	inactive: 0.393
GGCGAGAUGUUGACAUACUTT against ADCY1	inactive: 0.154
CGGUAGGUCAUGUCUGUAATT against SULT1A1	inactive: -0.26
GCAACGACCUGAAGAUCGATT against ATXN1	inactive: -0.024
GAUUGAGUUUAUUUCAACATT against GGH	inactive: -0.105
GCUACUUGAUUGCGACCAATT against ADRBK2	inactive: 0.148
CCCAUAAUAUCAUUGAGAATT against SREBF2	inactive: -0.606
GGUGAAUGCUGAUGACUCUTT against CLDN16	inactive: -0.868
GAACAUCGAGAUGCACAAATT against AES	inactive: -0.478

A run of entries of the results above, for reference:
Sequence	median seed-adjusted z-score
CCGACAAGAUGUGAAGUCATT against ADD2	inactive: -0.176
GGACAGGAACCAGAACCCATT against ZFPM1	inactive: -0.925

(continued)

Sequence	median seed-adjusted z-score
CGUGAUUGACUAUGAGGAATT against GRM6	inactive: -0.0544
GAAGGACUCUCUACAGAAATT against LPO	inactive: 0.201
UGAGCACAAUCAAGUCUAATT against BRD4	active: 1.13
ACACCAAUGUGCUCCGCUATT against TTC9B	inactive: -0.272
GCAUUGUCACAUAAUUGAATT against NOTCH2NL	inactive: 0.586
CAACAGUGAUGUAACUAUUTT against PARD6G	inactive: 0
CCAAGAGAAUACAAGUUCUTT against RNF138	inactive: 0.265
GGAGAGCAAUACAUCAUCATT against GLRX2	inactive: -0.244
CCAGUGUCAUAAACCUGUATT against NUDT4	inactive: -0.0306
GGCAUAUGGUUAUCGAGGATT against EML4	inactive: 0.958
GCAUCGUUCUGCAGAUUGATT against KRT18	inactive: 0.558
GGUUUUCAGUCGUAAAUCATT against ZNF611	inactive: -0.0392
GGGAGGUAGUAAUCCUACATT against PPP1R12B	inactive: 0.416
GCAUCGACAUAAAGCUGGATT against KIF1C	inactive: 0.749
GAUUGAUACAGGCACUAUATT against GMEB1	inactive: 0.198
CAUUUUACCUGGGUACCAATT against PARS2	inactive: -0.433
GCUUUAACCCGGUGCUCUATT against XCR1	inactive: -0.292
GGAUCAGCGUAGUAUAAUUTT against OSBPL10	inactive: 0.247
CAUCCAGCCCUUUUCCUUUTT against LRFN2	inactive: 0
